From PubChem BioAssay AID493014 (National Center for Advancing Translational Sciences (NCATS), 2011) come the findings set out here.

Molecules are shown by their SMILES. Some of the results follow. The main result of the screen is listed elsewhere. These columns were measured beside it and carry no call. Most of these compounds were active or inconclusive in the main read-out, so they are no random draw. The note in brackets gives the kind of curve behind each potency; many fits are weak.

The nature of the test: qHTS Assay to Find Inhibitors of Chronic Active B-Cell Receptor Signaling. The settings on record: ABC-DLBCL IkBa-CBG/CBR reporter, luminescence ratio (green luciferase fused to IkBa over red control in TMD8 lymphoma cells), 4 h. In outline: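 Compounds up to 46 uM were incubated four hours with TMD8 cells whose green CBG68 luciferase is fused to IkappaBalpha; red CBR luminescence normalised the signal, and concentration-effect curves were fitted to fusion, red and ratio data.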
Background: qHTS replaces the single test concentration by a dilution series.

Where [1] appears, read: measured here: CBR red luminescence, cell number.
Where [2] appears, read: measured here: IkBa-CBG green luminescence.

In general, AC50 refers to the concentration at which the activity in the assay is half-maximal. As for `Clc1nc(Nc2ccccc2)nc(Nc2ccccc2)n1`, under setting [1], the AC50 is 18.4 µM [falling, partial curve].

Regarding `CCc1nccn1CCC(=O)N1CCc2c([nH]c3ccccc23)C1CC(C)C` (stereo unspecified), the AC50 under setting [1] was 11.2 µM [falling, partial curve, poor fit].

`COc1ccc(N2CCN(C(=O)C(=O)c3c(C)n(C)c4ccccc34)CC2)cc1`: the AC50 under setting [1] is 14.1 µM [rising, partial curve, poor fit].

In the case of `COc1ccnc(CSC(N)=Nc2ccccc2OC)c1`, the half-maximal activity concentration (AC50) under setting [2] was 25.9 µM [falling, single point].

On to `CN(C(=O)c1cccs1)c1ccccc1C(=O)O`, for which, under setting [1], the half-maximal activity concentration (AC50) is 6.51 µM [rising, partial curve].

Turning to `Cc1ccccc1NS(=O)(=O)c1ccc(NC(=O)CSCc2ccc(Br)cc2)cc1`, the AC50 under setting [1] is 29.1 µM [falling, single point].

`CCSc1nnc(CNC(=O)C23CC4CC(CC(C4)C2)C3)n1Cc1ccccc1`: the AC50 by setting is: under setting [1], 32.6 µM [falling, partial curve, poor fit]; under setting [2], 23.1 µM [rising, partial curve, poor fit].

Regarding `O=C(NN=Cc1ccccc1C(=O)O)c1ccc(NS(=O)(=O)c2cccs2)cc1`, the AC50 under setting [1] is 9.2 µM [falling, partial curve].

Regarding `C/C(=N\NC(=O)CC(C)C)c1ccc(N2CCCCC2)cc1`, the AC50 under setting [1] is 0.82 µM [rising, partial curve, poor fit].

For `O=C(OCc1ccc([N+](=O)[O-])cc1)c1cc([N+](=O)[O-])ccc1N1CCOCC1`, under setting [1], the AC50 is 2.59 µM [rising, partial curve, poor fit].

In the case of `Cn1c(=O)n(C)c2cc(NC(=O)CSc3nc4ccccc4c(=O)[nH]3)ccc21`, under setting [1], the AC50 is 3.16 µM [rising, full curve, poor fit].

Turning to `O=C(c1ccc2nc(N3CCOCC3)sc2c1)N1CCCC1`, the AC50 reads like this: under setting [1], 29.1 µM [rising, single point]; under setting [2], 20.6 µM [falling, single point].

Consider `CCCCN(C)CC(O)Cn1cc(/C=C/C(=O)c2ccc(OCC)cc2)c2ccccc21` (stereo unspecified), for which the AC50 under setting [1] is 15.8 µM [falling, single point].

For the compound `Cc1ccc(NC(=O)CCSCCC(=O)Nc2ccc(C)c(C)c2)cc1C`, the half-maximal activity concentration (AC50) under setting [1] is 5.01 µM [falling, partial curve].

For the compound `CSCCCN1CCCC(CO)(Cc2ccc(F)cc2)C1` (stereo unspecified), the AC50 under setting [1] was 0.355 µM [rising, full curve, poor fit].

On to `CC(=O)C1=C(O)C(=O)N(CCCCCC(=O)O)C1c1ccc(N(C)C)cc1` (stereo unspecified), for which the AC50 under setting [1] is 20.6 µM [falling, partial curve, poor fit].

For the compound `O=[N+]([O-])c1ccccc1/C=C/C=N/n1c(-c2ccc(Cl)cc2)n[nH]c1=S`, the AC50 under setting [1] was 1.26 µM [rising, full curve, poor fit].

On to `O=C(NCCc1ccccc1)c1ccc(-c2ccccc2Cl)o1`, for which the AC50 under setting [1] is 0.82 µM [rising, full curve].

Turning to `COc1ccc(C)cc1NC(=O)CNc1ccccc1CN(C)C1CCCCC1`, the AC50 under setting [1] is 14.1 µM [falling, partial curve, poor fit].

Take `Cc1cccc(NC(=O)NC2CCCc3ccccc32)c1` (stereo unspecified): under setting [1], the AC50 is 11.2 µM [falling, partial curve].

Regarding `O=C(NCc1csc2ccccc12)Nc1cc(Cl)cc(Cl)c1`, the AC50 under setting [1] was 3.98 µM [rising, single point].

On to `COC(=O)C1=CN(C(C)c2ccccc2)C=C(C(=O)OC)C1c1cc(OC)c(OC)c(OC)c1` (stereo unspecified), for which the AC50 under setting [1] was 14.1 µM [falling, partial curve].

For the compound `CN(CCOc1ccc(Cl)cc1)C(=O)c1cc(-c2ccco2)nc2ccccc12`, the AC50 under setting [1] is 14.6 µM [falling, single point].

With `CCCCNc1c(-c2cccc(SC3CCCCC3)c2)nc2ccc(Cl)cn12`, the AC50 under setting [1] was 23.1 µM [falling, single point].

On to `Cc1cc(C)n2nc3ccccc3c2n1`, for which the AC50 under setting [1] is 0.562 µM [falling, partial curve, poor fit].

Take `CC(=O)c1cc(-c2ccccc2)[nH]c1N1CCOCC1`: the AC50 under setting [1] was 32.6 µM [falling, single point].

On to `C/C(=N/NC(=O)c1ccc(Cl)s1)c1ccc(NC(=O)COc2ccc(Cl)cc2)cc1`, for which the half-maximal activity concentration (AC50) under setting [1] was 16.4 µM [falling, single point].

With `c1coc(-c2nnc(-c3ccco3)nn2)c1`, the AC50 under setting [1] is 11.2 µM [falling, partial curve].

Regarding `CC1=NNC(=O)/C1=C\c1cn(-c2ccccc2)nc1-c1cccs1`, the AC50 is 20.6 µM [falling, partial curve] under setting [1] and 23.1 µM [rising, single point] under setting [2].

On to `O=C(NCCOC(=O)c1ccc(Cl)c(S(=O)(=O)N2CCCCC2)c1)c1ccncc1`, for which the AC50 under setting [1] was 0.891 µM [rising, full curve, poor fit].

In the case of `Cc1nc2ccc(NC(=O)c3cc(Cl)ccn3)cc2s1`, the AC50 under setting [1] was 14.1 µM [falling, single point].

Regarding `Cc1ccc(C)c(S(=O)(=O)Nc2ccccc2C(=O)Nc2ccccc2N2CCOCC2)c1`, under setting [1], the AC50 was 0.146 µM [falling, full curve, poor fit].

Take `Cc1ccc(SCC(=O)Nc2cc(S(=O)(=O)N3CCCCC3)ccc2C)cc1`: under setting [1], the AC50 is 6.51 µM [rising, single point].

In the case of `Cc1ccc2c(=O)cc(C(F)F)oc2c1`, the AC50 under setting [1] is 0.103 µM [rising, full curve, poor fit].

As for `CCOC(=O)Nc1ccc2c(CN3C(=O)NC4(CCCC4)C3=O)cc(=O)oc2c1`, under setting [1], the AC50 was 13 µM [falling, partial curve, poor fit].

On to `CC(C)CNC(=O)c1ccccc1NC(=O)CN(c1ccc2c(c1)OCCO2)S(C)(=O)=O`, for which the AC50 under setting [1] is 3.66 µM [rising, partial curve].

On to `CC(=O)C1=NN(c2ccccc2)C2(S1)S/C(=C\c1ccccc1)C(=O)N2c1ccccc1` (stereo unspecified), for which the concentration at half-maximal activity (AC50) under setting [1] was 7.31 µM [falling, partial curve, poor fit].

Consider `O=C(N/N=C/c1c[nH]c2ccccc12)c1cc(Cl)ccc1O`, for which the AC50 under setting [1] is 1.26 µM [falling, full curve].

With `COc1cc2[nH]c(C(=O)N(C)Cc3ccccc3)cc2c(OC)c1OC`, the AC50 under setting [1] is 17.8 µM [rising, partial curve, poor fit].

For the compound `COc1cc(/C=N/NC(=O)c2ccc3c(c2)OCCO3)cc(Br)c1O`, the AC50 under setting [1] is 8.91 µM [falling, partial curve].

As to `Cc1ccc(CNC(=O)C2CC(c3cccc([N+](=O)[O-])c3)=NO2)o1` (stereo unspecified), the AC50 under setting [1] was 2.51 µM [falling, full curve, poor fit].

As for `CN(C)c1ccc(NC(=O)C2(c3cccs3)CCOCC2)cc1`, under setting [1], the AC50 was 17.8 µM [rising, single point].

On to `COc1ccc(C2C(C#N)=C(N)Oc3c2c(-c2ccccc2)nn3-c2ccccc2)c(OC)c1OC` (stereo unspecified), for which, under setting [1], the AC50 was 13 µM [falling, partial curve, poor fit].

Turning to `O=C(CN1CCOCC1)Nc1ccccc1`, the AC50 under setting [1] is 20.6 µM [rising, single point].

Turning to `COc1cccc(-c2c(-c3cc(OC)cc(OC)c3)n(C)c3ccc(Br)cc23)c1`, the AC50 under setting [1] was 16.4 µM [rising, single point].

Turning to `CC1=C(C(=O)OCC(C)C)C(c2ccccc2Cl)NC(=O)N1C` (stereo unspecified), the AC50 under setting [1] was 4.11 µM [rising, single point].

Take `CC(=O)c1cccc(OCc2cc(C(=O)N3CCSCC3)no2)c1`: under setting [1], the AC50 is 35.5 µM [rising, single point].

Regarding `Cc1ccc(/C=C2\SC(=S)N(CCC(=O)NNC(=O)c3cccc(O)c3)C2=O)cc1`, the concentration at half-maximal activity (AC50) under setting [1] is 10 µM [falling, partial curve].

`COc1cc2c(cc1OC)C(c1ccc(-c3ccccc3Cl)o1)=NCC2`: the AC50 under setting [1] is 1.03 µM [rising, single point].

For `OCC1(Cc2ccccc2)CCN(Cc2cnc(-c3cccc4ccccc34)nc2)CC1`, the concentration at half-maximal activity (AC50) under setting [1] is 2.51 µM [falling, partial curve, poor fit].

For `Cc1ccccc1-c1cc(C(=O)n2cccn2)c2cc(Cl)ccc2n1`, under setting [1], the AC50 is 11.2 µM [falling, partial curve, poor fit].

Turning to `Cc1ccc(N(CC(=O)N2CCOCC2)S(C)(=O)=O)cc1C`, the AC50 under setting [1] was 3.26 µM [rising, single point].

Consider `CN1CCN(C(=O)CCCOc2cc(=O)n(C)c3ccccc23)CC1`, for which the AC50 under setting [2] is 32.6 µM [falling, partial curve, poor fit].

On to `Cc1sc2c(c1C)C(O)=C(C(=O)Nc1ccccc1)S(=O)(=O)N2C`, for which the AC50 under setting [1] is 1.12 µM [falling, partial curve, poor fit].

As to `COc1ccc(CN=CC2=C(O)CNC2=O)cc1`, the AC50 under setting [1] was 2.91 µM [falling, single point].

For the compound `COc1ccc(Nc2nc(C)c(-c3ccccc3)s2)cc1`, the half-maximal activity concentration (AC50) under setting [1] was 29.1 µM [falling, single point].

On to `CCc1nc(NC(C)(C)C)c2cnn(-c3ccccc3)c2n1`, for which the AC50 under setting [1] is 5.01 µM [rising, full curve, poor fit].

For the compound `CCOC(=O)C1=C(C)NC(C)=C(C(=O)OCC)C1C(=O)OCC(=O)N1CCc2ccccc21`, the AC50 under setting [1] is 3.16 µM [rising, partial curve].

For the compound `COc1ccccc1C1=NN(C(=O)c2ccccc2)C(c2ccc(Br)cc2)C1` (stereo unspecified), under setting [1], the AC50 was 14.1 µM [rising, partial curve, poor fit].

On to `O=C(CNC(=O)c1ccncc1)N/N=C/c1cc(Br)ccc1OCc1ccccc1`, for which, under setting [1], the half-maximal activity concentration (AC50) was 35.5 µM [falling, single point].

On to `COc1ccc(NC(=O)CN(C)C(=O)/C=C/c2cn(Cc3ccccc3)nc2-c2cccnc2)cc1`, for which, under setting [1], the AC50 is 32.6 µM [falling, single point].

On to `Cc1ccccc1N=Nc1ccc(O)c2ncccc12`, for which, under setting [1], the half-maximal activity concentration (AC50) is 14.6 µM [rising, partial curve].

In the case of `CN(/N=C/c1ccc(O)cc1O)c1ncc(C(F)(F)F)cc1Cl`, the AC50 under setting [1] was 10 µM [rising, partial curve].
